PubChem BioAssay AID1671195, Yale University | 2021

Aim: 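Knockdowns that increase or decrease uptake of fluorescent LDL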 (primary screen)
Cells: human Huh7 hepatoma cells
Reagent: siRNA pool against human genes, 18 nM
Duration: about 2 to 2.5 days of knockdown, then 8 h LDL uptake
Challenge: DiI-labelled LDL at 30 µg/ml for 8 h, in lipoprotein-deficient serum medium
Measurement: 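Per-cell DiI-LDL intensity by automated imaging; well means scaled to the plate median and given as a robust z-score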
Scale: robust z-score: higher = more LDL uptake after knockdown
Active means: 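Active when two or more replicates show a robust z-score above 2 or below -2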
Shown is one part, drawn at random, of about 22,000 deposited reagents. About 1,510 of them (6.9%) were called active. 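Active includes knockdowns raising or lowering LDL uptake; positive z-scores mean more uptake, negative mean less.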

gene | robust z-score, replicate 1 | robust z-score, replicate 2 | robust z-score, replicate 3 | Outcome
GRAMD2B (GRAM domain containing 2B) | 0.855 | 1.95 | 0.526 | inactive
NUDT5 (nudix hydrolase 5) | -1.28 | -0.603 | -1.15 | inactive
METTL26 (methyltransferase like 26) | -0.849 | -1.1 | -1.16 | inactive
GLOD5 (glyoxalase domain containing 5) | -0.569 | 0.726 | 0.891 | inactive
TNFRSF17 (TNF receptor superfamily member 17) | -1.11 | -0.804 | -1.5 | inactive
BEX5 (brain expressed X-linked 5) | -1.26 | -1.68 | -1.37 | inactive
FUT3 (fucosyltransferase 3 (Lewis blood group)) | 0.455 | 0.131 | 0.587 | inactive
FRMD4A (FERM domain containing 4A) | -1.96 | -0.31 | -0.859 | inactive
ZNF2 (zinc finger protein 2) | 0.977 | 0.685 | 0.639 | inactive
RLN3 (relaxin 3) | -1.64 | -1.37 | -0.891 | inactive
CES1P2 (carboxylesterase 1 pseudogene 2) | 1.37 | 1.21 | 1.26 | inactive
FLJ41455 (retired record) | -0.841 | -1.34 | -1.08 | inactive
HAS2 (hyaluronan synthase 2) | -1.05 | -1.34 | -1.23 | inactive
GPC6 (glypican 6) | 2.8 | 2.5 | 1.44 | active
NANS (N-acetylneuraminate synthase) | -0.594 | -3.3 | 0.0465 | inactive
SUN1 (Sad1 and UNC84 domain containing 1) | 0.0371 | -1.65 | -0.983 | inactive
GOLGA2P5 (GOLGA2 pseudogene 5) | -0.549 | 0.558 | -0.564 | inactive
EIF2S1 (eukaryotic translation initiation factor 2 subunit alpha) | 2.66 | 3.26 | 2.59 | active
HCP5 (HLA complex P5) | 1.58 | 1.76 | 1.47 | inactive
ZNF337 (zinc finger protein 337) | 0.646 | -0.0239 | 1.54 | inactive
PIK3R3 (phosphoinositide-3-kinase regulatory subunit 3) | -0.332 | 0.913 | -0.347 | inactive
GPR55 (G protein-coupled receptor 55) | 5.79 | 4.37 | 5.01 | active
VAMP5 (vesicle associated membrane protein 5) | 1.17 | 0.403 | -0.92 | inactive
PELO (pelota mRNA surveillance and ribosome rescue factor) | -0.985 | -0.684 | -0.681 | inactive
CST8 (cystatin 8) | -0.896 | -1.1 | -1.25 | inactive
FCN1 (ficolin 1) | -0.147 | -0.182 | 0.208 | inactive
GPC1 (glypican 1) | -1.11 | -0.768 | -1.15 | inactive
TEAD3 (TEA domain transcription factor 3) | -0.547 | -0.81 | -0.664 | inactive
GSN (gelsolin) | -1.75 | 0.136 | -2.2 | inactive
ASB4 (ankyrin repeat and SOCS box containing 4) | -0.448 | -0.248 | 0.173 | inactive
PSMD4 (proteasome 26S subunit ubiquitin receptor, non-ATPase 4) | 2.32 | 2.3 | 1.52 | active
BPIFB4 (BPI fold containing family B member 4) | -0.609 | 0.00705 | 0.0604 | inactive
ARHGAP29 (Rho GTPase activating protein 29) | -0.0908 | 0.0224 | -0.145 | inactive
LOC442159 (retired record) | -1.65 | -1.38 | -1.07 | inactive
SLC39A5 | 0.00326 | 0.0871 | -0.123 | inactive
MED13L (mediator complex subunit 13L) | -0.908 | -0.278 | -1.69 | inactive
AVL9 (AVL9 cell migration associated) | 0.815 | 0.13 | 1.46 | inactive
TMC1 (transmembrane channel like 1) | 0.582 | 1.59 | 1.59 | inactive
LOC441367 (retired record) | -0.243 | -0.656 | -0.228 | inactive
CCT4 (chaperonin containing TCP1 subunit 4) | -0.635 | -0.911 | -0.233 | inactive
LINC00479 (long independently transcribed non-coding RNA 479) | 0.898 | 0.881 | 0.685 | inactive
LOC389991 (retired record) | -0.755 | -0.965 | -1.33 | inactive
SLC9A9 | 0.481 | -0.266 | 0.776 | inactive
POP4 (POP4 ribonuclease P/MRP subunit) | -1.37 | -0.799 | -0.927 | inactive
ARMC10 (armadillo repeat containing 10) | -0.0166 | -0.0578 | -0.424 | inactive
TAS2R46 (taste 2 receptor member 46) | -0.146 | -0.123 | 0.0421 | inactive
LRP1 (LDL receptor related protein 1) | -0.0428 | -0.0316 | -0.179 | inactive
CD320 (CD320 molecule) | -0.136 | -0.116 | 0.122 | inactive
OR8H3 (olfactory receptor family 8 subfamily H member 3) | -1.14 | -0.933 | -0.607 | inactive
ITGAL (integrin subunit alpha L) | -0.468 | -1.11 | -1.42 | inactive
LOC401740 (retired record) | -0.496 | -0.821 | -0.581 | inactive
CAMK2B (calcium/calmodulin dependent protein kinase II beta) | -0.261 | -0.473 | 0.455 | inactive
ABCG4 (ATP binding cassette subfamily G member 4) | 0.303 | 0.251 | 0.37 | inactive
PRAMEF2 (PRAME family member 2) | -0.212 | 0.156 | 0.0328 | inactive
LINC01060 (long independently transcribed non-coding RNA 1060) | -0.118 | 0.0954 | -0.123 | inactive
FOLH1B (folate hydrolase 1B (pseudogene)) | 0.445 | -0.0611 | 0.706 | inactive
LGI4 (leucine rich repeat LGI family member 4) | 0.829 | 0.949 | 0.644 | inactive
FAM124A (family with sequence similarity 124 member A) | 2.54 | 3.3 | 2.82 | active
NEFM (neurofilament medium chain) | -0.24 | 1.63 | 0.222 | inactive
RPGRIP1L (RPGRIP1 like) | 0.849 | 2.68 | 0.395 | inactive
LOC441722 (U2 small nuclear RNA auxiliary factor 1-like 4 pseudogene) | -2.5 | -2.91 | -2.55 | active
DYNLL2 (dynein light chain LC8-type 2) | -1.64 | -1.68 | -1.56 | inactive
SYCN (syncollin) | 0.73 | 0.911 | 1.08 | inactive
CDH7 (cadherin 7) | -0.987 | -0.653 | -1.06 | inactive
FOSL1 (FOS like 1, AP-1 transcription factor subunit) | 0.14 | -0.195 | -0.108 | inactive
JAK2 (Janus kinase 2) | 0.716 | 0.439 | 1.05 | inactive
SGO1 (shugoshin 1) | -0.501 | 0.328 | 1.2 | inactive
NHERF4 (NHERF family PDZ scaffold protein 4) | -1.24 | -1.16 | -0.844 | inactive

Copied from the list:
Under “robust z-score, replicate 2”, DYNLL2 (dynein light chain LC8-type 2) reads -1.68
ZNF337 (zinc finger protein 337), Outcome = inactive
Value for CST8 (cystatin 8) under “robust z-score, replicate 3”: -1.25
Under “robust z-score, replicate 1”, ASB4 (ankyrin repeat and SOCS box containing 4) reads -0.448
